This note sets out measurements from PMC9981704, “PARP1 allows proper telomere replication through TRF1 poly (ADP-ribosyl)ation and helicase recruitment”.

Sequences of proteins named here, by UniProt entry; tags and fusion partners are left off. A change or cut given only in a name is not applied to a line headed by its entry.
UniProt P54274: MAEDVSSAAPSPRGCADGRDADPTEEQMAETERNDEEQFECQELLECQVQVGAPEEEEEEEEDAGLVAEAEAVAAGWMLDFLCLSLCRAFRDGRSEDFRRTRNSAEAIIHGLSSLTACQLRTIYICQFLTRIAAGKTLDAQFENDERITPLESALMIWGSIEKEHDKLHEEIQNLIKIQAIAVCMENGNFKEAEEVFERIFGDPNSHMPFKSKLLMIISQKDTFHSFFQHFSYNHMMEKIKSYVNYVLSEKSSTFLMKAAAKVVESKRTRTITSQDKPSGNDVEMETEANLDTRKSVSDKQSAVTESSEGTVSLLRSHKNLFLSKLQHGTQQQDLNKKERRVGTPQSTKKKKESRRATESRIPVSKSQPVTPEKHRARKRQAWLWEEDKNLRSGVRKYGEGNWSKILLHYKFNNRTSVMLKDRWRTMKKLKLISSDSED

The exact form of at least one protein or probe is not confirmed. A weaker result is weaker than the reference pair of the same experiment.

The target in the data set is TRF1 PARylated by PARP1 (human) (UniProt P54274). The data set can be described thus: EMSA. The settings on record: TRF1 pre-PARylated by PARP1, binding massively reduced; 20 mM Hepes pH 7.9, 100 mM NaCl, 50 mM KCl, 1 mM MgCl2, 0.1 mM EDTA, 1 mM DTT, 5% glycerol, 0.5 mg/ml BSA, 0.1% NP-40; 4 °C, 90 min; native 4.5% PAGE; recombinant protein; residues 1-439; protein details: His (pTrc-HisB); label: 32P 5' end label (T4 PNK).

In the case of “GGGTTAGGGTTAGGGTTAGGGTTAGGGTTAGGGTTAGGGTTAGGGCCCCTC (double strand) [telomeric duplex DNA]”, the binding result was “binds more weakly”.
